Patent publication US20240425601A1 (University of California, published 2024)
Results are given in words; binding and its absence hold for the method and conditions named. Some entries that bind do so weakly or less than the wild type.

Amino acid sequences for entries named in this document (tags omitted). A change or cut given only in a name is not applied to a line headed by its entry.
UniProt P43406: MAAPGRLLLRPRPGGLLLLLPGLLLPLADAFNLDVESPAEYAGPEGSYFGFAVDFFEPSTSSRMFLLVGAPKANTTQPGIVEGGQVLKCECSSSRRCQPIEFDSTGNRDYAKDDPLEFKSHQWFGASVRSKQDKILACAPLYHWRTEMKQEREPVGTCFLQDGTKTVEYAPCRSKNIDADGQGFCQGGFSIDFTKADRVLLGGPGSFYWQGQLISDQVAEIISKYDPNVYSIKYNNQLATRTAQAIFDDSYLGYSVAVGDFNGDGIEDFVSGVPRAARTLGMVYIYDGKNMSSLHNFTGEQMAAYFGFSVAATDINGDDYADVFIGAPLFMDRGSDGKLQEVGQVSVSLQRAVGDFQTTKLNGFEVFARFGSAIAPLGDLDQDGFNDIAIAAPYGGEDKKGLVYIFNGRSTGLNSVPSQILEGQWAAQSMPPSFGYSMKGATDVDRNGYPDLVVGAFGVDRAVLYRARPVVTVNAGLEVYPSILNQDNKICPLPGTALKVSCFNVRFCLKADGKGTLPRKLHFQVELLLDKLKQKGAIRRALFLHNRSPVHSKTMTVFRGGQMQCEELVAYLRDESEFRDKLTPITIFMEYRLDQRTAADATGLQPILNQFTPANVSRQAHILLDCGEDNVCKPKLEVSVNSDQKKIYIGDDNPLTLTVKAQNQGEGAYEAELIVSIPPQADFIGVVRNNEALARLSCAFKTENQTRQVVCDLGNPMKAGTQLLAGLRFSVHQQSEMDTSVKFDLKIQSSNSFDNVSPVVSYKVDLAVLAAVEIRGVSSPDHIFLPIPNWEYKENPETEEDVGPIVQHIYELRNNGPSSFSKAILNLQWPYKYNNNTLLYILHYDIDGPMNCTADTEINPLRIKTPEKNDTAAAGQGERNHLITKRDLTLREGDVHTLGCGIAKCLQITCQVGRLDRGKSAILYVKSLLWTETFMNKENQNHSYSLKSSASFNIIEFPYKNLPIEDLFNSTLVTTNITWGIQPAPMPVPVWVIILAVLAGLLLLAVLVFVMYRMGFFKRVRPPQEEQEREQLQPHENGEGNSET
UniProt Q0VBD0: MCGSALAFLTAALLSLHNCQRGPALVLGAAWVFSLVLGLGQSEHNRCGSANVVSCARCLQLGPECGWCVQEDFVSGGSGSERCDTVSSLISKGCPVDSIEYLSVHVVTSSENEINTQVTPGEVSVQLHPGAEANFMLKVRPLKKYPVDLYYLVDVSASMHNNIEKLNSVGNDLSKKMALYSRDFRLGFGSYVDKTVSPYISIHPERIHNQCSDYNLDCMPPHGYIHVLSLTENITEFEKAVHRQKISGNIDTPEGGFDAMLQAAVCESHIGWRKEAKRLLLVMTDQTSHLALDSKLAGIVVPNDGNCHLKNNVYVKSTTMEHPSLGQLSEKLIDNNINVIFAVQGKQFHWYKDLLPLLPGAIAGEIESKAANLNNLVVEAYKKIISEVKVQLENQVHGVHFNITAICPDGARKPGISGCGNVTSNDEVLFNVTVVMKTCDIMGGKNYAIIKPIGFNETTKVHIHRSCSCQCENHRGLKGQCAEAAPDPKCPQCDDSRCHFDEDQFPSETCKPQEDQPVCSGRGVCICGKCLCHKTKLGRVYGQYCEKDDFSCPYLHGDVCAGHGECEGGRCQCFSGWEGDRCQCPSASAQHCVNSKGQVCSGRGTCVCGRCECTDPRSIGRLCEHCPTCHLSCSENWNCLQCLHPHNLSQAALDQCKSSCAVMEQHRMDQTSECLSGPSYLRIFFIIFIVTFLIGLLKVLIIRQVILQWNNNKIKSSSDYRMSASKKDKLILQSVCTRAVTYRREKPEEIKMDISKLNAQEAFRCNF

Tests used:
[1] = target: T1, recombinant mouse αvβ8 (mouse) (UniProt P43406+Q0VBD0); test: bio-layer interferometry, IgG loaded on anti-human Fab-CH1 tips, αvβ8 at 200 nM in solution
[2] = target: T1, recombinant mouse αvβ8 (mouse); test: bio-layer interferometry
[3] = target: T1, recombinant mouse αvβ8 (mouse); test: bio-layer interferometry, IgG loaded on anti-human Fab-CH1 tips, mouse αvβ8 at 200 nM in solution
[4] = target: T1, recombinant mouse αvβ8 (mouse); test: bio-layer interferometry (legend of FIGS. 5A and 5B)
[5] = target: T2, surface-expressed mouse αvβ8 (mouse) (UniProt P43406+Q0VBD0); test: FACS titration on murine astrocytes, fluorescently-labeled secondary antibody
[6] = target: T2, surface-expressed mouse αvβ8 (mouse); test: FACS on murine astrocytes (legend of FIG. 7)
[7] = target: T2, surface-expressed mouse αvβ8 (mouse); test: FACS on murine astrocytes

Binder | binding [1] | binding [2] | binding [5] | other results
ADWA16-chimera (antibody, V domains shown) VH: QVQLQQSGAELAKPGASMKMSCKASGYTFSSYWIYWVKQRPGQGLEWIGYINPTTGYTEYNQKFRDKATLTADKSSNTAYMQLSSLTSEDSAVYYCATEGGNWEDYWGQGTTLTVSS VL: DIQMTQTTSSLSASLGDRVTISCRASQDISNYLNWYQQKPDGTVKLLIYYTSRLYSGVPSRFSGSGSGTDYSLTISNLEPKDIATYYCQQFSELPRTFGGGTKLEIK | binds |  |  | 
ADWA16-1 (antibody, V domains shown) VH: EVQLVESGGGLVQPGGSLRLSCAVSGYIFSSYWVYWVRQAPGKGLEWVGYINPTTGYTEYADSVKGRFTISRDNSKNTLYLQMNSLRAEDTAVYYCATEGGNWEDYWGQGTLVTVSS VL: DIQMTQSPSSLSASVGDRVTITCRASQDISNYINWYQQKPGKAPKLLIYYTSRLYSGVPSRFSGSGSGTDFTLTISSLQPEDFATYYCQQFSELPRTFGQGTKVEIK | binds | binds |  | 
ADWA16-2 (antibody, V domains shown) VH: EVQLVESGGGLVQPGGSLRLSCAVSGYIFSSYWVYWVRQAPGKGLEWVGYINPTTGYTEYADSVKGRFTISRDNSKNTLYLQMNSLRAEDTAVYYCATEGGNWEDYWGQGTLVTVSS VL: DIQMTQSPSSLSASVGDRVTITCRASKDISNYLNWYQQKPGKAPKLLIYYTSRLYSGVPSRFSGSGSGTDFTLTISSLQPEDFATYYCQQFSELPRTFGQGTKVEIK | binds | binds |  | 
ADWA16-3 (antibody, V domains shown) VH: EVQLVESGGGLVQPGGSLRLSCAVSGYIFSSYWVYWVRQAPGKGLEWVGYINPTTGYTEYADSVKGRFTISRDNSKNTLYLQMNSLRAEDTAVYYCATEGGNWEDYWGQGTLVTVSS VL: DIQMTQSPSSLSASVGDRVTITCRASQDISNYINWYQQKPGKAPKLLIYYTSRLYGGVPSRFSGSGSGTDFTLTISSLQPEDFATYYCQQFSELPRTFGQGTKVEIK | binds | binds |  | binding [3]: binds; binding [4]: binds
ADWA16-4 (antibody, V domains shown) VH: EVQLVESGGGLVQPGGSLRLSCAVSGYIFSSYWVYWVRQAPGKGLEWVGYINPTTGYTEYADSVKGRFTISRDNSKNTLYLQMNSLRAEDTAVYYCATEGGNWEDYWGQGTLVTVSS VL: DIQMTQSPSSLSASVGDRVTITCRASKDISNYINWYQQKPGKAPKLLIYYTSRLYGGVPSRFSGSGSGTDFTLTISSLQPEDFATYYCQQFSELPRTFGQGTKVEIK | binds | binds |  | 
ADWA16-3.2 (antibody, V domains shown) VH: EVQLVESGGGLVQPGGSLRLSCAVSGYIFSSYWVYWVRQAPGKGLEWVGYISPTTGYTVYADSVKGRFTISRDNSKNTLYLQMNSLRAEDTAVYYCATEGGNWEDYWGQGTLVTVSS VL: DIQMTQSPSSLSASVGDRVTITCRASQDISNYINWYQQKPGKAPKLLIYYTSRLYGGVPSRFSGSGSGTDFTLTISSLQPEDFATYYCQQFSELPRTFGQGTKVEIK |  | binds | binds | binding [6]: binds; binding [7]: binds; binding [3]: binds; binding [4]: binds
ADWA11 (antibody, V domains shown) VH: EVQLQQSGAELVRPGAFVKLSCKASGFNIKDYYMNWVLQRPEQGLEWIGWIDPDNGNTIYDPKFQGKASITADTSSNTAYLQLSSLTSEDTAVYYCARRLLMDYWGQGTSVTVSS VL: DIVMTQAAPSVPVTPGESVSISCRSTKSLLHFNGNTYLFWFLQRPGQSPQRLIYYMSNLASGVPDRFSGRGSGTDFTLRISRVEAEDVGVYYCMQSLEYPFTFGTGTKLEIK |  |  | binds | 
ADWA16 (antibody, V domains shown) VH: QVQLQQSGAELAKPGASMKMSCKASGYTFSSYWIYWVKQRPGQGLEWIGYINPTTGYTEYNQKFRDKATLTADKSSNTAYMQLSSLTSEDSAVYYCATEGGNWEDYWGQGTTLTVSS VL: DIQMTQTTSSLSASLGDRVTISCRASQDISNYLNWYQQKPDGTVKLLIYYTSRLYSGVPSRFSGSGSGTDYSLTISNLEPKDIATYYCQQFSELPRTFGGGTKLEIK |  |  | binds | 
